These are yes or no findings as the source states them, for the method shown. Binding seen in cells or lysates may run through a third protein. Some entries that bind do so weakly or less than the wild type.
Key:
[1] = biological target: FUS (fused in sarcoma), endogenous in glioblastoma cells (human (endogenous in T98G-R and U118-R)) (UniProt P35637); assay: co-IP; endogenous proteins in lysates of T98G-R and U118-R cells; 500 ug lysate, specific primary antibody, protein A/G beads, 4 C; also after knock-down of ADAMTS9-AS2 or MDM2; which of the two was precipitated is not told
V5-FUS, full length = V5-FUS, full length (UniProt P35637); assay: co-IP; V5-FUS full length or truncated versions transfected in HEK293T cells; IP with anti-V5 tag antibody, western blot with a specific MDM2 antibody

Amino acid sequences for entries named in this document (tags omitted). A change or cut given only in a name is not applied to a line headed by its entry.
UniProt P35637: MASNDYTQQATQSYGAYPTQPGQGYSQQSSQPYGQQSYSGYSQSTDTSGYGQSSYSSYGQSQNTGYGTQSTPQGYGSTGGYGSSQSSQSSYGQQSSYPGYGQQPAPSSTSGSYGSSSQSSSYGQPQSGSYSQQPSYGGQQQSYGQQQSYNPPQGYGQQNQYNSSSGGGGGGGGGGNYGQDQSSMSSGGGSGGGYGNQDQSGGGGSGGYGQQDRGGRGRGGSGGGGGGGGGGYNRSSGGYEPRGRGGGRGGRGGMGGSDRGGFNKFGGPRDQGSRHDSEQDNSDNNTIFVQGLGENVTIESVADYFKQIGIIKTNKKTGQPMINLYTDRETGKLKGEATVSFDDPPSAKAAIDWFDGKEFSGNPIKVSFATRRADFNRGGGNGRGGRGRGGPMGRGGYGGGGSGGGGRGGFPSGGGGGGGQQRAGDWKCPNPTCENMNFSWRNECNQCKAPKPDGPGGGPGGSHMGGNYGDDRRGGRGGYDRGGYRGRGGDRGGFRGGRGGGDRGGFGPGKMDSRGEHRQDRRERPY
UniProt Q00987: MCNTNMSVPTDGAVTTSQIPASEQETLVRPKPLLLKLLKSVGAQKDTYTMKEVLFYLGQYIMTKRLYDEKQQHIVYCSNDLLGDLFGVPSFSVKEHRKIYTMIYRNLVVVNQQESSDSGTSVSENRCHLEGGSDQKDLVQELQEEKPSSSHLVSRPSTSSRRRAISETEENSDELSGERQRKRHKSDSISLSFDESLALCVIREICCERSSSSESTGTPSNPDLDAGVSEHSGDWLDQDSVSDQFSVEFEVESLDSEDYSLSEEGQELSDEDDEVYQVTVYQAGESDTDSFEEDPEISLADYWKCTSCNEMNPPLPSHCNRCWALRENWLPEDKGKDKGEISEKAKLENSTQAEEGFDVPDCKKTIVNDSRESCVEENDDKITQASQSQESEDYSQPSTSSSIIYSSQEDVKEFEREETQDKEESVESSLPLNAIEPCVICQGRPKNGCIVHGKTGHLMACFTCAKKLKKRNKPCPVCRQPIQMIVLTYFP

In the case of “murine double minute 2 (MDM2) E3 ligase, endogenous in glioblastoma cells (from UniProt Q00987 1-491)”, the binding [1] is reported as “binds”.
For “MDM2 in HEK293T cells (from UniProt Q00987 1-491)”, the binding (V5-FUS, full length) was “binds”.
